Experimental data: patent publication US12286625B2, “Inhibition of mir-22 miRNA by APT-110” (AptamiR Therapeutics, Inc., priority 2016, dated 2025)

Tested on: DIO C57BL/6 male mice
Assay type: in vivo, mouse
Details: no difference between the two groups
Method: A dedicated study was conducted under contract at the University of Buckingham Institute of Translational Medicine (Pr. M A Cawthorne, Pr. P Trayhurn, Dr. C. Stocker) to assess the energetic and metabolic responses to the APT-110 miR-22-3p inhibitor treatment in adult Diet-Inducted-Obese (DIO) C57BL/6 male mice over the course of 3 months. Twenty-four DIO male C57BL/6 mice, who started on 60% high fat diet at the age of 7 weeks, were purchased at 15 weeks of age from the Jackson Laboratory, USA. The mice remained on a 60% high fat diet (Research Diet D12492) throughout the experiment. […]
For oral glucose tolerance test, food was removed six hours prior to the start of the glucose tolerance test (09h00) and animals were placed in clean cages. […] Plasma nonesterified Fatty Acids (NEFA, Crystal Wako Chemicals Gmbh, Neuss, Germany, Cat 999-75406), leptin (Crystal Chem. Inc., Cat LEP90030) and adiponectin (Alpco Diagnostics, Salem, New Hampshire, Cat 47-ADPMS-E01) were measured as per the manufacturers' recommendations. Body fat and lean content was measured by Nuclear Magnetic Resonance (NMR). […] Dedicated software was used to quantify amounts of adipose and fat. […]
To measure physical activity, mice were kept in their original cages of 2 mice per cage. […] Recordings were analyzed by eye and the number of times a line was broken by a mouse in each 10-minute segment was scored. […]

## 5′-5mCpsTpsTps2′OMeCpsTpsTps5mCpsApsAps2′OMeCpsTpsGpsGps5mCpsApsGps5mCpsT-3′ [APT-110]
12 weeks
  total food consumption: 229±6 grams per cage
  night time physical activity: 54±8 line breaks per cage
